# Laboratory results reported in publication PMC7956269.
# Biological target: Biotin-FOXC1 (mouse) (UniProt Q61572)
# Assay: affinity purification with mass spectrometry; streptavidin-agarose precipitation of biotinylated FOXC1 from nuclear extract of stable HEK293T cells (293T-Biotin-FOXC1); IP350 buffer (350 mM NaCl, 20 mM Tris-HCl pH 7.5, 0.5% NP40, 1 mM EDTA, 10% glycerin); SDS-PAGE, LC-ESI-MS/MS; proteins of the 293T-Biotin control deducted
row,Binder,binding
1,"Wdhd1 (protein, UniProt O75717 1-1129) MPATRKPMRYGHTEGHTEVCFDDSGSFIVTCGSDGDVRIWEDLDDDDPKFINVGEKAYSCALKSGKLVTAVSNNTIQVHTFPEGVPDGILTRFTTNANHVVFNGDGTKIAAGSSDFLVKIVDVMDSSQQKTFRGHDAPVLSLSFDPKDIFLASASCDGSVRVWQISDQTCAISWPLLQKCNDVINAKSICRLAWQPKSGKLLAIPVEKSVKLYRRESWSHQFDLSDNFISQTLNIVTWSPCGQYLAAGSINGLIIVWNVETKDCMERVKHEKGYAICGLAWHPTCGRISYTDAEGNLGLLENVCDPSGKTSSSKVSSRVEKDYNDLFDGDDMSNAGDFLNDNAVEIPSFSKGIINDDEDDEDLMMASGRPRQRSHILEDDENSVDISMLKTGSSLLKEEEEDGQEGSIHNLPLVTSQRPFYDGPMPTPRQKPFQSGSTPLHLTHRFMVWNSIGIIRCYNDEQDNAIDVEFHDTSIHHATHLSNTLNYTIADLSHEAILLACESTDELASKLHCLHFSSWDSSKEWIIDLPQNEDIEAICLGQGWAAAATSALLLRLFTIGGVQKEVFSLAGPVVSMAGHGEQLFIVYHRGTGFDGDQCLGVQLLELGKKKKQILHGDPLPLTRKSYLAWIGFSAEGTPCYVDSEGIVRMLNRGLGNTWTPICNTREHCKGKSDHYWVVGIHENPQQLRCIPCKGSRFPPTLPRPAVAILSFKLPYCQIATEKGQMEEQFWRSVIFHNHLDYLAKNGYEYEESTKNQATKEQQELLMKMLALSCKLEREFRCVELADLMTQNAVNLAIKYASRSRKLILAQKLSELAVEKAAELTATQVEEEEEEEDFRKKLNAGYSNTATEWSQPRFRNQVEEDAEDSGEADDEEKPEIHKPGQNSFSKSTNSSDVSAKSGAVTFSSQGRVNPFKVSASSKEPAMSMNSARSTNILDNMGKSSKKSTALSRTTNNEKSPIIKPLIPKPKPKQASAASYFQKRNSQTNKTEEVKEENLKNVLSETPAICPPQNTENQRPKTGFQMWLEENRSNILSDNPDFSDEADIIKEGMIRFRVLSTEERKVWANKAKGETASEGTEAKKRKRVVDESDETENQEEKAKENLNLSKKQKPLDFSTNQKLSAFAFKQE",binds
2,"Fip1l1 (protein, UniProt Q6UN15 1-594) MSAGEVERLVSELSGGTGGDEEEEWLYGGPWDVHVHSDLAKDLDENEVERPEEENASANPPSGIEDETAENGVPKPKVTETEDDSDSDSDDDEDDVHVTIGDIKTGAPQYGSYGTAPVNLNIKTGGRVYGTTGTKVKGVDLDAPGSINGVPLLEVDLDSFEDKPWRKPGADLSDYFNYGFNEDTWKAYCEKQKRIRMGLEVIPVTSTTNKITAEDCTMEVTPGAEIQDGRFNLFKVQQGRTGNSEKETALPSTKAEFTSPPSLFKTGLPPSRNSTSSQSQTSTASRKANSSVGKWQDRYGRAESPDLRRLPGAIDVIGQTITISRVEGRRRANENSNIQVLSERSATEVDNNFSKPPPFFPPGAPPTHLPPPPFLPPPPTVSTAPPLIPPPGFPPPPGAPPPSLIPTIESGHSSGYDSRSARAFPYGNVAFPHLPGSAPSWPSLVDTSKQWDYYARREKDRDRERDRDRERDRDRDRERERTRERERERDHSPTPSVFNSDEERYRYREYAERGYERHRASREKEERHRERRHREKEETRHKSSRSNSRRRHESEEGDSHRRHKHKKSKRSKEGKEAGSEPAPEQESTEATPAE",binds
3,"Gnl3l (protein, UniProt Q9NVN8 1-582) MMKLRHKNKKPGEGSKGHKKISWPYPQPAKQNGKKATSKVPSAPHFVHPNDHANREAELKKKWVEEMREKQQAAREQERQKRRTIESYCQDVLRRQEEFEHKEEVLQELNMFPQLDDEATRKAYYKEFRKVVEYSDVILEVLDARDPLGCRCFQMEEAVLRAQGNKKLVLVLNKIDLVPKEVVEKWLDYLRNELPTVAFKASTQHQVKNLNRCSVPVDQASESLLKSKACFGAENLMRVLGNYCRLGEVRTHIRVGVVGLPNVGKSSLINSLKRSRACSVGAVPGITKFMQEVYLDKFIRLLDAPGIVPGPNSEVGTILRNCVHVQKLADPVTPVETILQRCNLEEISNYYGVSGFQTTEHFLTAVAHRLGKKKKGGLYSQEQAAKAVLADWVSGKISFYIPPPATHTLPTHLSAEIVKEMTEVFDIEDTEQANEDTMECLATGESDELLGDTDPLEMEIKLLHSPMTKIADAIENKTTVYKIGDLTGYCTNPNRHQMGWAKRNVDHRPKSNSMVDVCSVDRRSVLQRIMETDPLQQGQALASALKNKKKMQKRADKIASKLSDSMMSALDLSGNADDGVGD",binds
4,"Pogz (protein, UniProt Q7Z3K3 1-1410) MADTDLFMECEEEELEPWQKISDVIEDSVVEDYNSVDKTTTVSVSQQPVSAPVPIAAHASVAGHLSTSTTVSSSGAQNSDSTKKTLVTLIANNNAGNPLVQQGGQPLILTQNPAPGLGTMVTQPVLRPVQVMQNANHVTSSPVASQPIFITTQGFPVRNVRPVQNAMNQVGIVLNVQQGQTVRPITLVPAPGTQFVKPTVGVPQVFSQMTPVRPGSTMPVRPTTNTFTTVIPATLTIRSTVPQSQSQQTKSTPSTSTTPTATQPTSLGQLAVQSPGQSNQTTNPKLAPSFPSPPAVSIASFVTVKRPGVTGENSNEVAKLVNTLNTIPSLGQSPGPVVVSNNSSAHGSQRTSGPESSMKVTSSIPVFDLQDGGRKICPRCNAQFRVTEALRGHMCYCCPEMVEYQKKGKSLDSEPSVPSAAKPPSPEKTAPVASTPSSTPIPALSPPTKVPEPNENVGDAVQTKLIMLVDDFYYGRDGGKVAQLTNFPKVATSFRCPHCTKRLKNNIRFMNHMKHHVELDQQNGEVDGHTICQHCYRQFSTPFQLQCHLENVHSPYESTTKCKICEWAFESEPLFLQHMKDTHKPGEMPYVCQVCQYRSSLYSEVDVHFRMIHEDTRHLLCPYCLKVFKNGNAFQQHYMRHQKRNVYHCNKCRLQFLFAKDKIEHKLQHHKTFRKPKQLEGLKPGTKVTIRASRGQPRTVPVSSNDTPPSALQEAAPLTSSMDPLPVFLYPPVQRSIQKRAVRKMSVMGRQTCLECSFEIPDFPNHFPTYVHCSLCRYSTCCSRAYANHMINNHVPRKSPKYLALFKNSVSGIKLACTSCTFVTSVGDAMAKHLVFNPSHRSSSILPRGLTWIAHSRHGQTRDRVHDRNVKNMYPPPSFPTNKAATVKSAGATPAEPEELLTPLAPALPSPASTATPPPTPTHPQALALPPLATEGAECLNVDDQDEGSPVTQEPELASGGGGSGGVGKKEQLSVKKLRVVLFALCCNTEQAAEHFRNPQRRIRRWLRRFQASQGENLEGKYLSFEAEEKLAEWVLTQREQQLPVNEETLFQKATKIGRSLEGGFKISYEWAVRFMLRHHLTPHARRAVAHTLPKDVAENAGLFIDFVQRQIHNQDLPLSMIVAIDEISLFLDTEVLSSDDRKENALQTVGTGEPWCDVVLAILADGTVLPTLVFYRGQMDQPANMPDSILLEAKESGYSDDEIMELWSTRVWQKHTACQRSKGMLVMDCHRTHLSEEVLAMLSASSTLPAVVPAGCSSKIQPLDVCIKRTVKNFLHKKWKEQAREMADTACDSDVLLQLVLVWLGEVLGVIGDCPELVQRSFLVASVLPGPDGNINSPTRNADMQEELIASLEEQLKLSGEHSESSTPRPRSSPEETIEPESLHQLFEGESETESFYGFEEADLDLMEI",binds

# Second part, the binder after the results:
row,binding,Binder
1,binds,"Ppip5k2 (protein, UniProt O43314 1-1243) MSEAPRFFVGPEDTEINPGNYRHFFHHADEDDEEEDDSPPERQIVVGICSMAKKSKSKPMKEILERISLFKYITVVVFEEEVILNEPVENWPLCDCLISFHSKGFPLDKAVAYAKLRNPFVINDLNMQYLIQDRREVYSILQAEGILLPRYAILNRDPNNPKECNLIEGEDHVEVNGEVFQKPFVEKPVSAEDHNVYIYYPTSAGGGSQRLFRKIGSRSSVYSPESNVRKTGSYIYEEFMPTDGTDVKVYTVGPDYAHAEARKSPALDGKVERDSEGKEVRYPVILNAREKLIAWKVCLAFKQTVCGFDLLRANGQSYVCDVNGFSFVKNSMKYYDDCAKILGNIVMRELAPQFHIPWSIPLEAEDIPIVPTTSGTMMELRCVIAVIRHGDRTPKQKMKMEVRHQKFFDLFEKCDGYKSGKLKLKKPKQLQEVLDIARQLLMELGQNNDSEIEENKPKLEQLKTVLEMYGHFSGINRKVQLTYLPHGCPKTSSEEEDSRREEPSLLLVLKWGGELTPAGRVQAEELGRAFRCMYPGGQGDYAGFPGCGLLRLHSTYRHDLKIYASDEGRVQMTAAAFAKGLLALEGELTPILVQMVKSANMNGLLDSDSDSLSSCQQRVKARLHEILQKDRDFTAEDYEKLTPSGSISLIKSMHLIKNPVKTCDKVYSLIQSLTSQIRHRMEDPKSSDIQLYHSETLELMLRRWSKLEKDFKTKNGRYDISKIPDIYDCIKYDVQHNGSLKLENTMELYRLSKALADIVIPQEYGITKAEKLEIAKGYCTPLVRKIRSDLQRTQDDDTVNKLHPVYSRGVLSPERHVRTRLYFTSESHVHSLLSILRYGALCNESKDEQWKRAMDYLNVVNELNYMTQIVIMLYEDPNKDLSSEERFHVELHFSPGAKGCEEDKNLPSGYGYRPASRENEGRRPFKIDNDDEPHTSKRDEVDRAVILFKPMVSEPIHIHRKSPLPRSRKTATNDEESPLSVSSPEGTGTWLHYTSGVGTGRRRRRSGEQITSSPVSPKSLAFTSSIFGSWQQVVSENANYLRTPRTLVEQKQNPTVGSHCAGLFSTSVLGGSSSAPNLQDYARTHRKKLTSSGCIDDATRGSAVKRFSISFARHPTNGFELYSMVPSICPLETLHNALSLKQVDEFLASIASPSSDVPRKTAEISSTALRSSPIMRKKVSLNTYTPAKILPTPPATLKSTKASSKPATSGPSSAVVPNTSSRKKNITSKTETHEHKKNTGKKK"
2,binds,"Nup93 (protein, UniProt Q8N1F7 1-819) MDTEGFGELLQQAEQLAAETEGISELPHVERNLQEIQQAGERLRSRTLTRTSQETADVKASVLLGSRGLDISHISQRLESLSAATTFEPLEPVKDTDIQGFLKNEKDNALLSAIEESRKRTFGMAEEYHRESMLVEWEQVKQRILHTLLASGEDALDFTQESEPSYISDVGPPGRSSLDNIEMAYARQIYIYNEKIVNGHLQPNLVDLCASVAELDDKSISDMWTMVKQMTDVLLTPATDALKNRSSVEVRMEFVRQALAYLEQSYKNYTLVTVFGNLHQAQLGGVPGTYQLVRSFLNIKLPAPLPGLQDGEVEGHPVWALIYYCMRCGDLLAASQVVNRAQHQLGEFKTWFQEYMNSKDRRLSPATENKLRLHYRRALRNNTDPYKRAVYCIIGRCDVTDNQSEVADKTEDYLWLKLNQVCFDDDGTSSPQDRLTLSQFQKQLLEDYGESHFTVNQQPFLYFQVLFLTAQFEAAVAFLFRMERLRCHAVHVALVLFELKLLLKSSGQSAQLLSHEPGDPPCLRRLNFVRLLMLYTRKFESTDPREALQYFYFLRDEKDSQGENMFLRCVSELVIESREFDMILGKLENDGSRKPGVIDKFTSDTKPIINKVASVAENKGLFEEAAKLYDLAKNADKVLELMNKLLSPVVPQISAPQSNKERLKNMALSIAERYRAQGISANKFVDSTFYLLLDLITFFDEYHSGHIDRAFDIIERLKLVPLNQESVEERVAAFRNFSDEIRHNLSEVLLATMNILFTQFKRLKGTSPSSSSRPQRVIEDRDSQLRSQARTLITFAGMIPYRTSGDTNARLVQMEVLMN"

# No constants are given. Whether binding was seen depends on the method and setting. Binding seen in cells or lysates may run through a third protein. These calls come from enrichment with a bait or labelling near it, and not all partners need be listed.
